According to patent US20250201957A1, “SEPARATION RECOVERY METHOD OF METAL IONS AND ACIDIC METAL EXTRACTANT” (FUJIFILM Corporation, priority 2022, published 2025):

Assay: Wet (solvent) extraction of metal ions from water phase W2 into kerosine oil phase containing the metal extractant
Details: W2 (Rh, Pd); maximum amount of metal ions extracted (ppm) divided by total amount of other metal ions extracted

Compound | Selection Ratio
CCCCC(CC)COP(=O)(O)CP(=O)(OCC)OCC(CC)CCCC (centres unmarked) [E-3] | 10
CCCCC(CC)COP(=O)(O)CP(=O)(O)OCC(CC)CCCC (centres unmarked) [E-2] | 15

Same assay, conditions: water phase W2

Compound | extraction of the metal ions extracted in the maximum amount (Rh ions) from the water phase to the oil phase
CCCCC(CC)COP(=O)(O)CP(=O)(OCC)OCC(CC)CCCC (centres unmarked) [E-3] | substantially in the entire amount
CCCCC(CC)COP(=O)(O)CP(=O)(O)OCC(CC)CCCC (centres unmarked) [E-2] | substantially in the entire amount

Same assay, conditions: water phase W2: Rh 15,000 ppm and Pd 15,000 ppm before extraction; oil phase 310 mM extractant in kerosine; 25° C.; mixing amount 1.30; ICP-OES

Compound | Metal Ion Concentration in Water Phase after Extraction (ppm) Pd | Metal Ion Concentration in Water Phase after Extraction (ppm) Rh [ppm]
CCCCC(CC)COP(=O)(O)CP(=O)(OCC)OCC(CC)CCCC (centres unmarked) [E-3] | 13,500 ppm | 0
CCCCC(CC)COP(=O)(O)CP(=O)(O)OCC(CC)CCCC (centres unmarked) [E-2] | 14,000 ppm | 0

Assay: Wet (solvent) extraction of metal ions from water phase W3 into kerosine oil phase containing the metal extractant
Details: W3 (Co, Mn); maximum amount of metal ions extracted (ppm) divided by total amount of other metal ions extracted

Compound | Selection Ratio
CCCCC(CC)COP(=O)(O)CCCP(=O)(O)OCC(CC)CCCC (centres unmarked) [E-1] | 1.0

Same assay, conditions: water phase W3 (Co, Mn)

Compound | Extracted Metal Ions Kind | Extracted Metal Ions Maximum Amount Extracted
CCCCC(CC)COP(=O)(O)CCCP(=O)(O)OCC(CC)CCCC (centres unmarked) [E-1] | Co, Mn | Co

Same assay, conditions: water phase W3: Co 15,000 ppm and Mn 15,000 ppm before extraction; oil phase 310 mM extractant in kerosine; pH during mixing 8.8; mixing amount 0.70; ICP-OES

Compound | Metal Ion Concentration in Water Phase after Extraction (ppm) Co | Metal Ion Concentration in Water Phase after Extraction (ppm) Mn
CCCCC(CC)COP(=O)(O)CCCP(=O)(O)OCC(CC)CCCC (centres unmarked) [E-1] | 1,000 ppm | 1,500 ppm

Assay: Wet (solvent) extraction of metal ions from water phase W1 into kerosine oil phase containing the metal extractant
Details: W1 (Co, Ni); maximum amount of metal ions extracted (ppm) divided by total amount of other metal ions extracted; shown as 100 where other ions were not extracted

Compound | Selection Ratio
CCCCC(CC)COP(=O)(O)CC(CC)CCCC (centres unmarked) [PC-88A, mono-2-ethylhexyl (2-Ethylhexyl)phosphonate, reference compound] | 100
CCCCC(CC)CC(CC(CC)CCCC)(C(=O)O)C(=O)O (centres unmarked) [E-4] | 1.4
CCCCC(CC)COP(=O)(O)CCCP(=O)(O)OCC(CC)CCCC (centres unmarked) [E-1] | 2.0
CCCCC(CC)COP(=O)(O)CP(=O)(OCC)OCC(CC)CCCC (centres unmarked) [E-3] | 19
CCCCC(CC)COP(=O)(O)CP(=O)(O)OCC(CC)CCCC (centres unmarked) [E-2] | 30
CCCCC(CC)COP(=O)(O)C(C)(O)P(=O)(O)OCC(CC)CCCC (centres unmarked) [E-8] | 1.4
Versatic acid 10 [VA-10, reference compound] | 100
CCCCCCCCOP(=S)(S)CP(=S)(S)OCCCCCCCC (centres unmarked) [E-6] | 1.8
CCCCC(CC)COP(=O)(O)CCP(=O)(O)OCC(CC)CCCC (centres unmarked) [E-5] | 1.9

Same assay, conditions: water phase W1

Compound | metal ions of aqueous solution (W1) extracted to the oil phase
CCCCC(CC)COP(=O)(O)CC(CC)CCCC (centres unmarked) [PC-88A, mono-2-ethylhexyl (2-Ethylhexyl)phosphonate, reference compound] | only Co ions
CCCCC(CC)COP(=O)(CP(=O)(OCC)OCC(CC)CCCC)OCC (centres unmarked) [E-7] | cannot be extracted
Versatic acid 10 [VA-10, reference compound] | only Co ions

Same assay, conditions: water phase W1 (Co, Ni)

Compound | Extracted Metal Ions Kind | Extracted Metal Ions Maximum Amount Extracted
CCCCC(CC)COP(=O)(O)CC(CC)CCCC (centres unmarked) [PC-88A, mono-2-ethylhexyl (2-Ethylhexyl)phosphonate, reference compound] | Co | Co
CCCCC(CC)CC(CC(CC)CCCC)(C(=O)O)C(=O)O (centres unmarked) [E-4] | Co, Ni | Co
CCCCC(CC)COP(=O)(O)CCCP(=O)(O)OCC(CC)CCCC (centres unmarked) [E-1] | Co, Ni | Co
CCCCC(CC)COP(=O)(CP(=O)(OCC)OCC(CC)CCCC)OCC (centres unmarked) [E-7] | None | None
CCCCC(CC)COP(=O)(O)CP(=O)(OCC)OCC(CC)CCCC (centres unmarked) [E-3] | Co, Ni | Co
CCCCC(CC)COP(=O)(O)CP(=O)(O)OCC(CC)CCCC (centres unmarked) [E-2] | Co, Ni | Co
CCCCC(CC)COP(=O)(O)C(C)(O)P(=O)(O)OCC(CC)CCCC (centres unmarked) [E-8] | Co, Ni | Co
Versatic acid 10 [VA-10, reference compound] | Co | –
CCCCCCCCOP(=S)(S)CP(=S)(S)OCCCCCCCC (centres unmarked) [E-6] | Co, Ni | Co
CCCCC(CC)COP(=O)(O)CCP(=O)(O)OCC(CC)CCCC (centres unmarked) [E-5] | Co, Ni | Co
